This note sets out measurements from article PMC12302606, “The SlDOF9‐SlSWEET17 Module: a Switch for Controlling Sugar Distribution Between Nematode Induced Galls and Roots in Tomato”.

In this data set the target is T1, SlDOF9-His (Solanum lycopersicum) (UniProt A0A3Q7FC45).
T1 sequence (looked up, limits assumed): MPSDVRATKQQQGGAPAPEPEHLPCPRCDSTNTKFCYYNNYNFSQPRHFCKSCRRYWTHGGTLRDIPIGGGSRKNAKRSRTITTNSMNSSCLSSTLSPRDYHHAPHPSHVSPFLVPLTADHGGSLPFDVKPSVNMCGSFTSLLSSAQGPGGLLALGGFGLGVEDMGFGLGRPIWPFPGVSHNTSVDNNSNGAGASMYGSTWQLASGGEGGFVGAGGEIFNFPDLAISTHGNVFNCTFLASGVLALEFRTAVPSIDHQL
Description: EMSA (supershift). As to conditions: anti-His antibody, two-base mutation not sufficient to prevent binding, legend: abolished or reduced; Biotin-labeled and unlabeled probes with purified protein and anti-His antibody, room temperature, 30 min; buffer from kit, salt and pH not stated; recombinant protein; protein details: C-terminal His. On the technique in general: In EMSA bound probe runs differently from free probe, usually more slowly.

For at least one entry, the source does not settle the construct or the ends of the probe. Weaker means in comparison with the reference protein, sequence or condition of that experiment. Tags and fusion partners may be left off the protein sequences shown.

“AGCCAGACATGAAAATACAATAATTCTCATT (double strand) [TS2m]”: the binding result is “binds more weakly”.
